Assay results reported in the supplement of paper PMC12823440, “Inhibitors supercharge kinase turnover through native proteolytic circuits” (Nature, 2025).
The list shows a part of the results. The calls rarely recur for the same compound in another form.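 Kinases were expressed as nanoluciferase fusions in K562 cells and luminescence was read every 4 h between 2 and 18 h as percent of control, DMSO set to 100% and a positive control to 0%. A time point counts as decreased when the signal drops significantly (2 sigma). The hit call is the authors' own, does not follow from the count of time points alone, and its rule is not shown.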

By UniProt entry, the sequences of proteins in these tests, tags left out. Where a name states a change or a piece, a line headed by the entry shows the natural chain unless it says otherwise.
UniProt P41240: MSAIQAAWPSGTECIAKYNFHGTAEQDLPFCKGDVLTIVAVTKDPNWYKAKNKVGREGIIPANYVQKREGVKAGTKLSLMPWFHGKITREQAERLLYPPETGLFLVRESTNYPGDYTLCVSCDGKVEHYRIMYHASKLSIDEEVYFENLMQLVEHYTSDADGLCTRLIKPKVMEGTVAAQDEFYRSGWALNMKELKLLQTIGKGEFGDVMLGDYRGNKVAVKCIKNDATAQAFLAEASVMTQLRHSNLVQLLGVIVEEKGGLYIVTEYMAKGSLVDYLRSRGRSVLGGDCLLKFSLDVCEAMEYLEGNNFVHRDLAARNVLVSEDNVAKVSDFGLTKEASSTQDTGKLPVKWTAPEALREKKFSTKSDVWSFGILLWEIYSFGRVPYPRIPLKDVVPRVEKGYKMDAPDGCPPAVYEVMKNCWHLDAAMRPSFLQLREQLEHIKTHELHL
UniProt Q9NYA1, whole entry: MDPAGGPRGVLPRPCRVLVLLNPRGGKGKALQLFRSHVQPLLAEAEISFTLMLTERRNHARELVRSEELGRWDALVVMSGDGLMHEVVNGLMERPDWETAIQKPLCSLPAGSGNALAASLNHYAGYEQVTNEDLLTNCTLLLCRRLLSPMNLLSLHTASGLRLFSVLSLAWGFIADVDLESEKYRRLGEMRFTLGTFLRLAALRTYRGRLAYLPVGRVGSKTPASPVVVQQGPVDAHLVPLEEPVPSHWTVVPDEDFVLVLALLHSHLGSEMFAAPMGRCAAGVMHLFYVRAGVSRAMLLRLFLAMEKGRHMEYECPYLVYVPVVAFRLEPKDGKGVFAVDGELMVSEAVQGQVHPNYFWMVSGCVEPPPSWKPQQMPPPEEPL
UniProt P29597: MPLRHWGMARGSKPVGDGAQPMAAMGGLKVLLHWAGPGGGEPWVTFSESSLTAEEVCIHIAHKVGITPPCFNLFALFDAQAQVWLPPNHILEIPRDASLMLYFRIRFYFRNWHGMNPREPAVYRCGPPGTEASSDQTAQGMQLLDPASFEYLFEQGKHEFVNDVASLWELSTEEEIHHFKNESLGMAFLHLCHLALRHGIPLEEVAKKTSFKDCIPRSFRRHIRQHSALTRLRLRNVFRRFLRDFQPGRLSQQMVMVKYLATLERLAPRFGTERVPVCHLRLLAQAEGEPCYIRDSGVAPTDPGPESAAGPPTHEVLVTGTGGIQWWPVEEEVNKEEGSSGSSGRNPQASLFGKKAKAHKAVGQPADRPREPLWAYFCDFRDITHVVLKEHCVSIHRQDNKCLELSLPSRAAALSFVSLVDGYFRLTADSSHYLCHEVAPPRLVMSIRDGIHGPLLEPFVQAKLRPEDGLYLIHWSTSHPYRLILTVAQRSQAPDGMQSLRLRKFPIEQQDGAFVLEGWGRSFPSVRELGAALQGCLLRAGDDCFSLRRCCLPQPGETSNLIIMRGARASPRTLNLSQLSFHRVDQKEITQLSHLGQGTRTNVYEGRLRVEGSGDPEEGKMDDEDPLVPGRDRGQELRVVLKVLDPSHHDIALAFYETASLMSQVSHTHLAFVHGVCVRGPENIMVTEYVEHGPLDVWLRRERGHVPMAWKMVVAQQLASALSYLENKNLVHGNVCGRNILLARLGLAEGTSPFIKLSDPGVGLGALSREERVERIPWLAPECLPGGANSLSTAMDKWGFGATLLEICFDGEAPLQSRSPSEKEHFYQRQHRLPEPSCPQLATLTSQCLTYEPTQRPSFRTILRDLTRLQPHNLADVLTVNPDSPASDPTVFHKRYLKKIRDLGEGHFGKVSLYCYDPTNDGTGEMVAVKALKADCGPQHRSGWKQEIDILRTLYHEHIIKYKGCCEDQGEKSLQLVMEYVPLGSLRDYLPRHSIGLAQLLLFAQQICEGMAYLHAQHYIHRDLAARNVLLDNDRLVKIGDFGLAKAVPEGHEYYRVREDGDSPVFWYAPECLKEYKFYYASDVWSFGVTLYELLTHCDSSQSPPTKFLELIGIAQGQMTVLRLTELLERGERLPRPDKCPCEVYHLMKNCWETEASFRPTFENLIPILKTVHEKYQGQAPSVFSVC
UniProt Q15208: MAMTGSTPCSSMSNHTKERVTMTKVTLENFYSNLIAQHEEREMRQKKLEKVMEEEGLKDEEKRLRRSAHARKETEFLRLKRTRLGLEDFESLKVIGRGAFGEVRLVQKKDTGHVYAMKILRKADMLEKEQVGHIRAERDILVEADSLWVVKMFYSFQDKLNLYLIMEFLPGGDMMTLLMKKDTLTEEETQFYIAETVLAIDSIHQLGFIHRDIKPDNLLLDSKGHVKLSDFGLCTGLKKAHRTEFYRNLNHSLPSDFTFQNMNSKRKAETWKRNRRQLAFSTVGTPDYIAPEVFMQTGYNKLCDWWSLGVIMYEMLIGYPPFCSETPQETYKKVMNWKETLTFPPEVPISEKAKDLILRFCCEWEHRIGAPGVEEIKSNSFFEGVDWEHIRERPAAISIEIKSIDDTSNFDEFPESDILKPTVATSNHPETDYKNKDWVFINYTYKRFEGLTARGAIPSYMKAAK
UniProt P53667: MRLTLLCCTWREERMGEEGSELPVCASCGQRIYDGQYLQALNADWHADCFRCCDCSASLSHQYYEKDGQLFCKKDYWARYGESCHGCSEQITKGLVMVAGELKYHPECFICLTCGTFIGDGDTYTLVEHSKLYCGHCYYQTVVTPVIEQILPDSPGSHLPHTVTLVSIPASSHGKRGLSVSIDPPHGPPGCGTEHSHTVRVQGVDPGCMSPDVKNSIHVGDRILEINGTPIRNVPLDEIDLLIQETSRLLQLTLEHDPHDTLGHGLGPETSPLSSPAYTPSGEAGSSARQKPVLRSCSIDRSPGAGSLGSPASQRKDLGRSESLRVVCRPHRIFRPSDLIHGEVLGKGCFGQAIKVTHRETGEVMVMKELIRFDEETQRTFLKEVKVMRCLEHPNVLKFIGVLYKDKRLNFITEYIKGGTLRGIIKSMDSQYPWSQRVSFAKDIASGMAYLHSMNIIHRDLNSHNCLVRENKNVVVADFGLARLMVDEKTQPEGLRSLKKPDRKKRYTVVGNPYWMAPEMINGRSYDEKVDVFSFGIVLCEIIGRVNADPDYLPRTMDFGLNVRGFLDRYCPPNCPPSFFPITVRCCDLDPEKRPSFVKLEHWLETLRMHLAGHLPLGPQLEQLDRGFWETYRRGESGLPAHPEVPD
UniProt Q9BUB5: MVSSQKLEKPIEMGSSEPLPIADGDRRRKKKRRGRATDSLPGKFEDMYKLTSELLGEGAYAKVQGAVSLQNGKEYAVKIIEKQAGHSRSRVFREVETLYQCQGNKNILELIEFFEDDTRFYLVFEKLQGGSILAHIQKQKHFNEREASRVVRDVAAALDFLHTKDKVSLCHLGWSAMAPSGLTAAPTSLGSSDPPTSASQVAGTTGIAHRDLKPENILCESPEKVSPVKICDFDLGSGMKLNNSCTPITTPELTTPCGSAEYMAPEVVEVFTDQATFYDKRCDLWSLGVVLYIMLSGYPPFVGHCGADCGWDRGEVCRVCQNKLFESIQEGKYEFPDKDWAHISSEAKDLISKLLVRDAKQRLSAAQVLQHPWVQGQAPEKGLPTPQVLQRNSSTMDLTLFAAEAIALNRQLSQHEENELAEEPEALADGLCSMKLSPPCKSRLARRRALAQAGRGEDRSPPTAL
UniProt Q9Y616: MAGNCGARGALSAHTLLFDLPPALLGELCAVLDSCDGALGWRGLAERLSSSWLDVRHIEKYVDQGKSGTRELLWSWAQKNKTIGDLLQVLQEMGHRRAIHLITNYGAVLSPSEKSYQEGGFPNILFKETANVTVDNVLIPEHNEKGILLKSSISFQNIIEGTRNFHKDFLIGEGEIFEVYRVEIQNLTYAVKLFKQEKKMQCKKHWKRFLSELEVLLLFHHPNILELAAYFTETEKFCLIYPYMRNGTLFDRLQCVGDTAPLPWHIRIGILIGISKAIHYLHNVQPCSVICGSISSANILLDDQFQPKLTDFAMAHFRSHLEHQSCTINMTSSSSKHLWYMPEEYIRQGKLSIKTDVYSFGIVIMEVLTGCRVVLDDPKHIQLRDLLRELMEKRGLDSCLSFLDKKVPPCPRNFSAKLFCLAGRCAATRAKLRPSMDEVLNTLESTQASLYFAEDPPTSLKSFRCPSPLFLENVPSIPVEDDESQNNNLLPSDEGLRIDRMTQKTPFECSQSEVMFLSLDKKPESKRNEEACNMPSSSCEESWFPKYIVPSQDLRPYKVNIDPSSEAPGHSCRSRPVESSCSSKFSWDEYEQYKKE
UniProt P06241, whole entry, looked up: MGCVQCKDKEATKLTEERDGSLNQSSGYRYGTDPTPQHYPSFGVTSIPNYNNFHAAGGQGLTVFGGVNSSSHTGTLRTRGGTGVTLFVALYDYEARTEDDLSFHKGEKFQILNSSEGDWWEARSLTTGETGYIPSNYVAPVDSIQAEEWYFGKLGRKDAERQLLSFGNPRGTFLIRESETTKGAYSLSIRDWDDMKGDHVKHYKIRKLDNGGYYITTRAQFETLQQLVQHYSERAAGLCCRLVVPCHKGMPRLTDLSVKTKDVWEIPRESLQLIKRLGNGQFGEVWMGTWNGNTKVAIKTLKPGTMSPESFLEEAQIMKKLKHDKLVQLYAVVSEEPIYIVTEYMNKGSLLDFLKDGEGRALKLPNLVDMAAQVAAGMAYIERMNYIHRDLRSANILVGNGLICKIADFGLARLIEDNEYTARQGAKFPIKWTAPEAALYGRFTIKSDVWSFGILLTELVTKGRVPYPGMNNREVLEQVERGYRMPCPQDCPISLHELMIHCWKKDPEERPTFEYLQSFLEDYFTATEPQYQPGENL
UniProt O75460: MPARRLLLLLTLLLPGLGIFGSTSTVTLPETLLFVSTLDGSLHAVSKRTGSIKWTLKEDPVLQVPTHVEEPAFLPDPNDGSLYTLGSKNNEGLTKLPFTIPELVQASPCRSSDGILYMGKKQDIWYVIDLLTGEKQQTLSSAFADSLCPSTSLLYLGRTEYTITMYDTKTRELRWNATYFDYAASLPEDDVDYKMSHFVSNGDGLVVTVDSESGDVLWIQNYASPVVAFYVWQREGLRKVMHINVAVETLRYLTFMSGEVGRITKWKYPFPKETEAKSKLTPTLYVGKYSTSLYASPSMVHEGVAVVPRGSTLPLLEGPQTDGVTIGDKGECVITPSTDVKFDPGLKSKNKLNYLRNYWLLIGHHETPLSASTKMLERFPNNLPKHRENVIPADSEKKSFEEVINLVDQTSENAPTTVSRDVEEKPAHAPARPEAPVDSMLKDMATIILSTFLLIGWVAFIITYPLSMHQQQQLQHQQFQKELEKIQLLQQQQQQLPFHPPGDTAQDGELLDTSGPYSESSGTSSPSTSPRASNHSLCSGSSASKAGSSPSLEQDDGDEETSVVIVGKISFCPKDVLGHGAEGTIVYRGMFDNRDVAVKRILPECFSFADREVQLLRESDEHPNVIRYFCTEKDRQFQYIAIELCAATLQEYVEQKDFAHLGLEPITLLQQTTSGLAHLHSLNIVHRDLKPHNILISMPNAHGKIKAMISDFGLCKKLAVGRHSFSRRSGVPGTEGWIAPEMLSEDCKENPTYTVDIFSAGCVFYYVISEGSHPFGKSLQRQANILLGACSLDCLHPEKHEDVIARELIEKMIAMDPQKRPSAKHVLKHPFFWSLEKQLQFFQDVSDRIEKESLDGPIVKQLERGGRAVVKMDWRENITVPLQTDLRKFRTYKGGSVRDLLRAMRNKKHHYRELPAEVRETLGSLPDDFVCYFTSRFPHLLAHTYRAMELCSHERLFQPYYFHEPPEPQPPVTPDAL
UniProt Q16620, whole entry, looked up: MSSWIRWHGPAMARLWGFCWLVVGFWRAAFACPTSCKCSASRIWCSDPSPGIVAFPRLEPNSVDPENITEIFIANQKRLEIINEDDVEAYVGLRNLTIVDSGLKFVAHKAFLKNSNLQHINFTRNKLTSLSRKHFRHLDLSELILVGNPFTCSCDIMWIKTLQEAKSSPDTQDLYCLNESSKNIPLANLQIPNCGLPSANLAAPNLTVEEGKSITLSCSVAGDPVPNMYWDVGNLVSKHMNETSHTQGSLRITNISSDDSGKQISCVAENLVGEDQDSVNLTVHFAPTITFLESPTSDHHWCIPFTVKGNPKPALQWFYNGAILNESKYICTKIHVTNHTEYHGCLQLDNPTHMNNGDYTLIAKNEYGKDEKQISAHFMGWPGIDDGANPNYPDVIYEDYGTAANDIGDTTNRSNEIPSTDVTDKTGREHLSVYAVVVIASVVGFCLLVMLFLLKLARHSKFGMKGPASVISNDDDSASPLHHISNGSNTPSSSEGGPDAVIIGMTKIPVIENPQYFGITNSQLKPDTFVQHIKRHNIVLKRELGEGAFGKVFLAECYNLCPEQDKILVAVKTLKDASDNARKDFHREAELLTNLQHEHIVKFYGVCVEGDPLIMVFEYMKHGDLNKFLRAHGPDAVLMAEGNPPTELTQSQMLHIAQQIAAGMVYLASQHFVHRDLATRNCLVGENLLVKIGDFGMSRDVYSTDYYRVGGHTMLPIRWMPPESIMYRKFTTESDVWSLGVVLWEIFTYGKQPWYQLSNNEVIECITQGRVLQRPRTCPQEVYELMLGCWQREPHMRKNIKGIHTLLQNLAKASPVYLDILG

Assays:
Test in all cases: number of time points (of 5) at which kinase-Nluc abundance scored as decreased, DMSO-normalised (count); higher = more persistent destabilization
[1] = compound: N#CC(=Cc1cc(Cl)cc(Cl)c1)c1cccnc1; details: 10 µM; K562; 2-18 h
[2] = compound: NC(=O)c1c(OCc2c(F)cc(Br)cc2F)nsc1NC(=O)NCCCCN1CCCC1; details: 2.5 µM; K562; 2-18 h
[3] = compound: NC1(C(=O)N[C@@H](CCO)c2ccc(Cl)cc2)CCN(c2nc[nH]c3nccc2-3)CC1 [Capivasertib]; details: 10 µM; K562; 2-18 h
[4] = compound: NCCNc1ncc(C(N)=O)c(Nc2cccc(C(F)(F)F)c2)n1 [Syk Inhibitor II]; details: 10 µM; K562; 2-18 h
[5] = compound: Nc1nc(Nc2ccc(S(N)(=O)=O)cc2)nn1C(=O)c1c(F)cccc1F; details: 2.5 µM; K562; 2-18 h
[6] = compound: Nc1ncccc1-c1nc2ccc(-c3ccccc3)nc2n1-c1ccc(C2(N)CCC2)cc1 [Miransertib]; details: 10 µM; K562; 2-18 h
[7] = compound: Nc1ncnc2c1c(-c1cnc3[nH]ccc3c1)nn2C1CCCC1; details: 2.5 µM; K562; 2-18 h
[8] = compound: Nc1ncnc2n[nH]c(-c3ccc(Oc4ccccc4)cc3)c12 [Ibrutinib deacryloylpiperidine]; details: 10 µM; K562; 2-18 h
[9] = compound: O=C(NCCCNc1nc(Nc2cccc(CN3CCOCC3)c2)ncc1C1CC1)C1CCC1; details: 10 µM; K562; 2-18 h

Row | Target | number of time points [1] | number of time points [2] | number of time points [3] | number of time points [4] | number of time points [5] | number of time points [6] | number of time points [7] | number of time points [8] | number of time points [9]
1 | CSK (UniProt P41240) | 0 | 0 | 0 | 0 | 0 | 0 | 0 | 0 | 0
2 | NTRK3 (UniProt Q16288) | 0 | 0 | 0 | 0 | 0 | 0 | 4 | 0 | 0
3 | SPHK1 (UniProt Q9NYA1) | 0 | 0 | 0 | 0 | 0 | 0 | 0 | 0 | 0
4 | PTK2 (UniProt Q05397) | 0 | 0 | 0 | 0 | 0 | 0 | 2 | 0 | 0
5 | TYK2 (UniProt P29597) | 0 | 0 | 0 | 0 | 0 | 1 | 4 | 0 | 0
6 | ALK (UniProt Q9UM73) | 0 | 0 | 0 | 0 | 0 | 2 | 0 | 0 | 0
7 | STK38 (UniProt Q15208) | 0 | 0 | 0 | 0 | 0 | 1 | 2 | 0 | 0
8 | HER2 (UniProt P04626) | 0 | 0 | 0 | 0 | 0 | 0 | 0 | 0 | 1
9 | LIMK1 (UniProt P53667) | 0 | 0 | 0 | 0 | 0 | 5 | 4 | 0 | 0
10 | MKNK1 (UniProt Q9BUB5) | 0 | 0 | 0 | 0 | 0 | 2 | 0 | 0 | 0
11 | EGFR (UniProt P00533) | 0 |  | 0 | 0 | 2 | 1 |  |  | 0
12 | PTK2B (UniProt Q14289) |  | 0 | 0 | 0 | 0 | 0 | 0 | 0 | 0
13 | SRC (UniProt P12931) | 0 | 0 | 0 | 0 | 0 | 0 |  |  | 0
14 | IRAK3 (UniProt Q9Y616) |  | 0 | 0 | 0 | 0 | 3 | 2 | 0 | 0
15 | RET_M918T (clone: RET_mut) (UniProt P07949) | 0 |  | 0 | 0 | 0 | 0 | 1 | 0 | 0
16 | SYK (UniProt P43405) | 0 |  | 0 | 0 | 0 | 0 | 0 | 0 | 0
17 | FYN (UniProt P06241) |  | 0 | 0 | 0 | 0 | 1 | 3 | 0 | 3
18 | YES1 (UniProt P07947) |  | 0 | 0 | 0 | 0 | 0 | 0 | 0 | 0
19 | ERBB4_R711C (clone: ERBB4_mut) (UniProt Q15303) |  | 0 | 0 | 0 | 2 | 0 | 4 | 0 | 0
20 | ERN1 (UniProt O75460) |  | 0 | 0 | 0 | 0 | 0 | 0 | 0 | 0
21 | NTRK2 (UniProt Q16620) |  | 0 | 0 | 0 | 0 | 0 | 0 | 0 | 0
22 | BMX (UniProt P51813) | 0 | 0 | 0 | 0 |  | 1 | 3 | 0 | 0
23 | CAMK2A (UniProt Q9UQM7) |  | 0 | 0 | 0 | 0 | 0 | 0 | 0 | 0

Just number of time points [4] (2 entries from above):
Row	Target	number of time points [4]
11	EGFR (UniProt P00533)	0
20	ERN1 (UniProt O75460)	0
